From article PMC11132878
Results are given in words; binding and its absence hold for the method and conditions named. In cells and extracts the contact can be indirect. Some results given as binding are weak or reduced against the parent protein; the word gives no strength. Where a sequence is shown, tags or fusion partners need not be part of it.

Legend:
[1] = molecular target: T1, MYC-tagged ARP (MYC-ARP) (Arabidopsis thaliana) (UniProt P45951); assay: co-IP; pairwise co-IP validation of ARP, CHR24 and NAP1 with negative controls (Supplementary Fig. S2)
T1 sequence: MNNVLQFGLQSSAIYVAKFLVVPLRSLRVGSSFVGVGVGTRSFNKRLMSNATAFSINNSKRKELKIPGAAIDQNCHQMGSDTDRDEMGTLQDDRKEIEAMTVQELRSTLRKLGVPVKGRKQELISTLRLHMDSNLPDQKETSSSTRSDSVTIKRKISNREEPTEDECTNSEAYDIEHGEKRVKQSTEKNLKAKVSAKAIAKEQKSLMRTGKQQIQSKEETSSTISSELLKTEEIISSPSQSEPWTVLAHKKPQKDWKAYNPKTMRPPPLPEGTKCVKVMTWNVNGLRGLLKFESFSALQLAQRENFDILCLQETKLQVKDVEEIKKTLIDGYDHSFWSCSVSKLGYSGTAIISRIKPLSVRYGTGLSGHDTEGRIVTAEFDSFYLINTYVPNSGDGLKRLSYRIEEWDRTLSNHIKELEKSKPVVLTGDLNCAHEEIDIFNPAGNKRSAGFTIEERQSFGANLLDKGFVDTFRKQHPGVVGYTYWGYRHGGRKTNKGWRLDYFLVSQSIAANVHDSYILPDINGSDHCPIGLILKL

[2] = molecular target: T1, MYC-tagged ARP (MYC-ARP) (Arabidopsis thaliana); assay: co-IP; CHR24-FLAG and MYC-ARP transiently co-expressed in mesophyll protoplasts of YFP-NAP1;2 transgenic plants; IP with or without antibodies against GFP, FLAG and MYC, immunoblot
[3] = molecular target: T2, MBP–ARP (Arabidopsis APE-redox protein tagged with maltose-binding protein) (Arabidopsis thaliana) (UniProt P45951); assay: pull-down; MBP–ARP and MBP (control) immobilised on Amylose Resin, mixed with extracts of mesophyll protoplasts expressing YFP-NAP1;2 and CHR24-FLAG, 4 h at 4 °C, washed three times, immunoblot; only the target purified
T2 sequence: T1 sequence

Measured: binding

B1: FLAG-tagged CHR24 (CHR24-FLAG) (enzyme, UniProt Q8W103 1-1090)
chain: MAENTASHRRKPRSLNDRHYSILQDLSAPPRQPPSSSHGEDEETKKSMIKLAGRRRLCKALPKEDEADGYDDPDLVDFYSPVKGETSLDSAGIGNKFTSWDESKEANTELAGEPNFSIITDFCSPSPQLKQKEEMQGDGGRNEIMGILDDLTSKLGTMSIQKKKDSQSNDFDACGVKSQVDKFDFEDAKSSFSLLSDLSKSSPDVVTTYNAGVNSIKDKQGKSGFAIREEQTSKEFSREWEERISNVGKQNSYSGRHFDDNSEDNRQGYNLDRGKSQCKEVDQSMKTTRHIEVSEKIRTVGRSNAAKLRDLDEDDDDDDCLILSGKKAAEMKINKPARSYNAKRHGYDERSLEDEGSITLTGLNLSYTLPGKIATMLYPHQREGLNWLWSLHTQGKGGILGDDMGLGKTMQICSFLAGLFHSKLIKRALVVAPKTLLPHWMKELATVGLSQMTREYYGTSTKAREYDLHHILQGKGILLTTYDIVRNNTKALQGDDHYTDEDDEDGNKWDYMILDEGHLIKNPNTQRAKSLLEIPSSHRIIISGTPIQNNLKELWALFNFSCPGLLGDKNWFKQNYEHYILRGTDKNATDREQRIGSTVAKNLREHIQPFFLRRLKSEVFGDDGATSKLSKKDEIVVWLRLTACQRQLYEAFLNSEIVLSAFDGSPLAALTILKKICDHPLLLTKRAAEDVLEGMDSTLTQEEAGVAERLAMHIADNVDTDDFQTKNDSISCKLSFIMSLLENLIPEGHRVLIFSQTRKMLNLIQDSLTSNGYSFLRIDGTTKAPDRLKTVEEFQEGHVAPIFLLTSQVGGLGLTLTKADRVIVVDPAWNPSTDNQSVDRAYRIGQTKDVIVYRLMTSATVEEKIYRKQVYKGGLFKTATEHKEQIRYFSQQDLRELFSLPKGGFDVSPTQQQLYEEHYNQIKLDEKLESHVKFLETLGIAGVSHHSLLFSKTAPIQAIQKDEEEQIRRETALLLGRASASISQDTVINGADYAFKPKDVNLDKRINISPVDDKELSESVIKARLNRLTMLLQNKGTVSRLPDGGAKIQKQIAELTRELKDMKAAERINMPQVIDLEEDISRKMQKGLNL
binds: all assays above
